Data: patent US20130078720A1, “METHOD FOR INDUCING PLURIPOTENCY IN HUMAN SOMATIC CELLS WITH PRDM14 OR NFRKB” (Agency for Science, Technology and Research, published 2013)
No constants are given. Whether binding was seen depends on the method and setting. In cells and extracts the contact can be indirect. Some results given as binding are weak or reduced against the parent protein; the word gives no strength. For some of these results: Tags and fused reporters may be left off the sequences shown.

Amino acid sequences for entries named in this document (tags omitted).
UniProt Q15910: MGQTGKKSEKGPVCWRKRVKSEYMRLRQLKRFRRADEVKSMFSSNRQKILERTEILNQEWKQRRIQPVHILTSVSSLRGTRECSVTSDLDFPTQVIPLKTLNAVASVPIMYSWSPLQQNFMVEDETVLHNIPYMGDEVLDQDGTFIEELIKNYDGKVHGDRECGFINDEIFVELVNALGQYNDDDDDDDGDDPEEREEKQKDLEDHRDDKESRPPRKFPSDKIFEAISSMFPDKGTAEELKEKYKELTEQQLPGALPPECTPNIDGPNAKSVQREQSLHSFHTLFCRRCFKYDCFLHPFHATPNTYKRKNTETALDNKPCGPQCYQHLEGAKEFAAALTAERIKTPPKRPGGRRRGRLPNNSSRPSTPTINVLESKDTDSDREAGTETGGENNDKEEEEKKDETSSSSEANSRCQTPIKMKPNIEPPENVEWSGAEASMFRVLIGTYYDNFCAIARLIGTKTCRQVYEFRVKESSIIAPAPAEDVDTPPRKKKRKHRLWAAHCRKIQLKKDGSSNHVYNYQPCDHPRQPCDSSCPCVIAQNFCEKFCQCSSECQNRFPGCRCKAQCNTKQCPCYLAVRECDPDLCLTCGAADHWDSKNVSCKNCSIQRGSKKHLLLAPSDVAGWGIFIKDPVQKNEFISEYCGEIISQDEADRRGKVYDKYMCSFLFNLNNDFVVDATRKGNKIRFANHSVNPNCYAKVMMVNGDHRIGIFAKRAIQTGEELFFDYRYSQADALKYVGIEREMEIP

How the values were obtained:
[1] = molecular target: Ezh2, a component of polycomb repressive complex 2 (human) (UniProt Q15910); experiment: co-IP, hESC whole cell lysate (FIG. 21B)
[2] = molecular target: Ezh2, a component of polycomb repressive complex 2 (human) (UniProt Q15910); experiment: co-IP from hESC whole cell lysate with anti-PRDM14 and anti-Ezh2 antibody, western with anti-PRDM14 or anti-Ezh2 antibody (FIG. 21B)
Myc tagged EZH2 protein [3] = molecular target: Myc tagged EZH2 protein (UniProt Q15910); experiment: co-IP, co-transfected 293T cells (FIG. 21C)
Myc tagged EZH2 protein [4] = molecular target: Myc tagged EZH2 protein (UniProt Q15910); experiment: co-IP from lysate of 293T cells co-transfected with HA tagged PRDM14 and Myc tagged EZH2, with anti-HA and anti-Myc antibody (FIG. 21C)

binding [1] | binding [2] | binding (Myc tagged EZH2 protein [3]) | binding (Myc tagged EZH2 protein [4]) | Binder
binds | binds |  |  | PR domain-containing protein 14 (PRDM14) (protein) MALPRPSEAVPQDKVCYPPESSPQNLAAYYTPFPSYGHYRNSLATVEEDFQPFRQLEAAASAAPAMPPFPFRMAPPLLSPGLGLQREPLYDLPWYSKLPPWYPIPHVPREVPPFLSSSHEYAGASSEDLGHQIIGGDNESGPCCGPDTLIPPPPADASLLPEGLRTSQLLPCSPSKQSEDGPKPSNQEGKSPARFQFTEEDLHFVLYGVTPSLEHPASLHHAISGLLVPPDSSGSDSLPQTLDKDSLQLPEGLCLMQTVFGEVPHFGVFCSSFIAKGVRFGPFQGKVVNASEVKTYGDNSVMWEIFEDGHLSHFIDGKGGTGNWMSYVNCARFPKEQNLVAVQCQGHIFYESCKEIHQNQELLVWYGDCYEKFLDIPVSLQVTEPGKQPSGPSEESAEGYRCERCGKVFTYKYYRDKHLKYTPCVDKGDRKFPCSLCKRSFEKRDRLRIHILHVHEKHRPHKCSTCGKCFSQSSSLNKHMRVHSGDRPYQCVYCTKRFTASSILRTHIRQHSGEKPFKCKYCGKSFASHAAHDSHVRRSHKEDDGCSCSICGKIFSDQETFYSHMKFHEDY
 |  | binds | binds | HA tagged PRDM14 (protein, not shown: small tags and cut ends) MALPRPSEAVPQDKVCYPPESSPQNLAAYYTPFPSYGHYRNSLATVEEDFQPFRQLEAAASAAPAMPPFPFRMAPPLLSPGLGLQREPLYDLPWYSKLPPWYPIPHVPREVPPFLSSSHEYAGASSEDLGHQIIGGDNESGPCCGPDTLIPPPPADASLLPEGLRTSQLLPCSPSKQSEDGPKPSNQEGKSPARFQFTEEDLHFVLYGVTPSLEHPASLHHAISGLLVPPDSSGSDSLPQTLDKDSLQLPEGLCLMQTVFGEVPHFGVFCSSFIAKGVRFGPFQGKVVNASEVKTYGDNSVMWEIFEDGHLSHFIDGKGGTGNWMSYVNCARFPKEQNLVAVQCQGHIFYESCKEIHQNQELLVWYGDCYEKFLDIPVSLQVTEPGKQPSGPSEESAEGYRCERCGKVFTYKYYRDKHLKYTPCVDKGDRKFPCSLCKRSFEKRDRLRIHILHVHEKHRPHKCSTCGKCFSQSSSLNKHMRVHSGDRPYQCVYCTKRFTASSILRTHIRQHSGEKPFKCKYCGKSFASHAAHDSHVRRSHKEDDGCSCSICGKIFSDQETFYSHMKFHEDY
